Data as given in PubChem BioAssay AID504791 (Drosophila RNAi Screening Center, 2011)

- Test: 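Genes of the fly required for silencing by miRNA, siRNA or endo-siRNA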 (primary screen)
- Cells: Drosophila S2-derived reporter cells
- Knock-down reagent: long dsRNA against Drosophila genes, about 150-250 ng dsRNA per well (siRNA assay); about 80-120 ng (miRNA assay)
- Timing: about 5 days (siRNA assay); about 4 days (miRNA assay)
- Conditions: copper sulfate induction of reporters: 25 µM (siRNA assay); 200 mM stated (miRNA assay), 1-2 days before reading
- Read-out: 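Dual luciferase assay: Renilla to firefly signal ratio in each well, scaled to the mean ratio of its plate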
- Rule for the call: 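a well was a first-pass pick when its plate-scaled ratio rose above 1.5 (siRNA assay) or 1.6 (miRNA assay), or dropped below 0.6; a gene counted only if two separate dsRNAs agreed on retest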
In all, the deposit lists about 23,000 reagents; shown is a random part of those with a known target gene and a result. Over the whole deposit, 199 (0.86%) were called active. 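Plate-scaled ratios behind the calls are not deposited; printed light signals are raw; many rows marked increased or decreased are still called inactive.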 Unmarked entries are inactive. Names joined by + are all predicted targets of the reagent. The record does not give: the direction of the score.

stable siRNA reporter change | miRNA reporter change | stable assay Renilla, run 1 (luminescence) | stable assay firefly, run 1 (luminescence) | gene | amplicon
– | – | 4523 | 3.66e5 | CG17600 | DRSC20638
– | – | 6040 | 4.06e5 | CG17600 | DRSC20640
– | – | 3823 | 3.42e5 | CG17600 | DRSC22753
– | – | 6827 | 4.88e5 | Rap2l (Ras-associated protein 2-like) | DRSC04646
– | – | 8004 | 5.39e5 | CG12239 | DRSC17832
– | – | 98368 | 1.03e6 | tomboy40 | DRSC04918
– | – | 3943 | 3.70e5 | Ae2 (Anion exchanger 2) | DRSC08997
– | – | 8280 | 4.49e5 | Ae2 (Anion exchanger 2) | DRSC10969
– | – | 6316 | 2.83e5 | eIF3g2 (eukaryotic translation initiation factor 3 subunit g2) | DRSC14275
– | – | 7106 | 3.83e5 | sstn (stepping stone) | DRSC10753
– | – | 7107 | 3.07e5 | Trs31 (TRAPP subunit 31) | DRSC05975
– | – | 7254 | 3.82e5 | CG4080 | DRSC10398
– | – | 9495 | 5.81e5 | RagA-B (Ras-related GTP binding A/B) | DRSC14450
– | – | 8117 | 3.01e5 | RpL27A (Ribosomal protein L27A) | DRSC00781
– | – | 6083 | 3.68e5 | CG6283 | DRSC16009
– | – | 5931 | 3.00e5 | Oxp (Oxpecker) | DRSC06712
– | – | 6698 | 3.77e5 | CG9812 | DRSC04566
– | – | 10525 | 7.37e5 | CG31775 + CG42586 | DRSC22289
– | – | 4903 | 3.45e5 | CG31775 + CG42586 | DRSC23266
– | – | 7492 | 3.96e5 | CG15482 | DRSC02492
– | – | 4483 | 3.33e5 | CG31211 | DRSC14953
– | – | 8418 | 3.99e5 | CG31211 | DRSC15344
– | reporter ratio raised past the hit cutoff | 10592 | 4.26e5 | CG31211 | DRSC21478
– | – | 7155 | 5.27e5 | ohgt (ohgata) | DRSC15521
– | – | 9539 | 4.66e5 | CG15814 | DRSC19730
– | – | 6452 | 5.97e5 | CG4615 | DRSC17491
– | – | 7580 | 5.44e5 | CG4615 | DRSC18376
– | – | 6011 | 5.46e5 | Pstk + CG14210 + Tim9b | DRSC19566
– | – | 5083 | 5.33e5 | parvin | DRSC19468
– | – | 6835 | 4.39e5 | Obp50e (Odorant-binding protein 50e) | DRSC06434
– | – | 6450 | 3.66e5 | CG30271 | DRSC04170
– | – | 7415 | 4.25e5 | Spt3 | DRSC15465
– | – | 7386 | 3.57e5 | SdhCL (Succinate dehydrogenase, subunit C-like) | DRSC16078
– | – | 6002 | 3.93e5 | Taf13 (TBP-associated factor 13) | DRSC02106
– | – | 6675 | 4.38e5 | rhea | DRSC11300
– | – | 8186 | 4.03e5 | Ccdc58 + CG34116 | DRSC10105
– | – | 6942 | 5.86e5 | sphe (spheroide) | DRSC20203
– | – | 7350 | 3.71e5 | CG10151 | DRSC05974
– | – | 4068 | 3.75e5 | CG30177 | DRSC22680
– | – | 8440 | 2.79e5 | upSET | DRSC11051
– | – | 6178 | 4.39e5 | upSET | DRSC23289
– | – | 5747 | 3.46e5 | dyw (daywake) | DRSC18228
– | – | 8395 | 4.25e5 | CG8586 | DRSC07218
– | – | 7122 | 4.16e5 | CG17108 | DRSC02576
– | reporter ratio raised past the hit cutoff | 9335 | 6.35e5 | CG17108 | DRSC22214
– | – | 5152 | 4.73e5 | Grx5 (Glutaredoxin 5) | DRSC19593
– | – | 5703 | 5.89e5 | CG34045 | DRSC05787
– | – | 6260 | 3.73e5 | Tim17b1 | DRSC12179
– | – | 4879 | 3.12e5 | Idgf4 (Imaginal disc growth factor 4) | DRSC18675
reporter ratio lowered past the hit cutoff | – | 7325 | 6.27e5 | CG15699 (retired record) | DRSC06571
– | – | 6372 | 5.05e5 | NimA (Nimrod A) | DRSC01353
– | – | 8306 | 4.38e5 | NimA (Nimrod A) | DRSC22170
– | – | 6754 | 3.52e5 | Ir48b (Ionotropic receptor 48b) | DRSC06320
reporter ratio lowered past the hit cutoff (active) | – | 3732 | 5.19e5 | CkIIbeta (Casein kinase II beta subunit) | DRSC20230
– | – | 8313 | 4.51e5 | tHMG2 (testis-enriched HMG-box-containing protein 2) | DRSC16182
– | – | 6499 | 5.05e5 | CG7632 | DRSC11842
– | – | 7234 | 4.27e5 | CG30291 | DRSC03842
– | – | 13592 | 1.11e6 | wol (wollknaeuel) | DRSC03077
– | – | 5011 | 4.62e5 | CG34327 | DRSC19517
– | – | 8792 | 5.88e5 | CG34327 | DRSC22380
– | – | 2232 | 2.49e5 | Obsc (Obscurin) | DRSC04301
– | – | 7938 | 1.43e6 | Obsc (Obscurin) | DRSC04302
– | – | 5687 | 3.69e5 | Obsc (Obscurin) | DRSC04303
– | – | 6927 | 4.69e5 | Obsc (Obscurin) | DRSC04430
– | – | 5003 | 4.89e5 | Obsc (Obscurin) | DRSC22422
– | – | 7918 | 4.84e5 | gkt (glaikit) | DRSC00821
– | – | 8584 | 7.06e5 | CG42375 + CG9288 | DRSC16468
– | – | 5358 | 4.25e5 | CG40005 (retired record) + cta | DRSC03763
– | – | 6362 | 3.74e5 | Mccc2 (Methylcrotonoyl-CoA carboxylase 2) | DRSC04987
– | – | 5503 | 3.79e5 | mmd (mind-meld) | DRSC19672
– | – | 5492 | 3.69e5 | mmd (mind-meld) | DRSC19673
– | – | 6036 | 4.04e5 | mmd (mind-meld) | DRSC20161
– | – | 5654 | 4.05e5 | mmd (mind-meld) | DRSC23042
– | – | 8039 | 2.92e5 | CG11007 | DRSC06023
– | – | 6959 | 3.37e5 | CG11839 | DRSC14398
– | – | 7670 | 4.90e5 | beat-IIIb (beaten path IIIb) | DRSC02435
– | – | 6054 | 4.27e5 | Dnai2 (dynein, axonemal, intermediate chain 2) | DRSC10575
– | – | 5051 | 3.52e5 | Tdc1 (Tyrosine decarboxylase 1) | DRSC04942
– | – | 8227 | 5.97e5 | CG31445 | DRSC14443
– | – | 5979 | 2.75e5 | jar (jaguar) | DRSC16974
– | – | 7895 | 3.37e5 | TpnC25D (Troponin C at 25D) | DRSC02965
– | – | 8371 | 1.01e6 | Mulk (Multi-substrate lipid kinase) | DRSC02658
– | – | 5859 | 4.40e5 | CG5800 | DRSC19962
